Measurements taken from PMC11478330.
The exact form of at least one protein or probe is not confirmed. At least one verdict was read from the data and is not stated in words by the source.

Protein sequences, listed by entry. Tags and fused reporters are not part of them. Residues count along the entry.
UniProt P07288, 25-261: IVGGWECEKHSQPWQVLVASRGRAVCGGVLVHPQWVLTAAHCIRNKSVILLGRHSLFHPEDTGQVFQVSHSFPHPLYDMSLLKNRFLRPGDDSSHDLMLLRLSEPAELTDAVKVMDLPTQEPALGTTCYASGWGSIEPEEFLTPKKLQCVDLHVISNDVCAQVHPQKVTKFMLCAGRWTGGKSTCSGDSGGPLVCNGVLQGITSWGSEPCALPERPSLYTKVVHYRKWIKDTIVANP

Target: prostate-specific antigen (PSA) (UniProt P07288)
Assay: sandwich amperometric aptasensor
Conditions: PSA captured by Apt-ADA, Apt-HRP as label, H2O2/hydroquinone, range 0.5-50 ng/mL, LOD 0.11 ng/mL in PBS (not Kd), 5' amino-C6 coupled to periodate-oxidized HRP, PBS (detection limit measurement), binding buffer details, commercial protein, folded or branched …

## TTTTTAATTAAAGCTCGCCATCAAATAGCTTT [anti-PSA aptamer-HRP conjugate (Apt-HRP)]
  binding result: binds
